PubChem BioAssay AID1259274 | Sanger Institute – 2017
The whole screen tested 794 reagents; shown is a part drawn at random. 11 of them (1.4%) count as active. 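Calls rest on knock-down without drug only; synergy scores with anchor drugs were not used for the essential call.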 No viability above 1 is reported: the scale is capped. Not all columns of the deposit are shown. Not given: the amount of reagent, the time to read-out.

- Screen: 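Kinase knock-downs that cut colorectal cancer cell viability or boost drug killing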 (primary screen)
- Cell system: human RKO colorectal cancer cells
- Knock-down reagent: siRNA pool against human genes
- Challenge: anchor drugs BYL719 at 1 µM, cetuximab at 5 µg/ml or trametinib at 10 nM; DMSO vehicle as the no-drug arm
- Read-out: 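Viability of cells versus control pool 2 (non-targeting) averaged across replicates; knock-down-only robust z-score; for every anchor drug (BYL719, cetuximab, trametinib) a synergy score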
- Reading the numbers: viability z-score, siRNA alone: higher = more viable cells; low values mean essential gene; viability, siRNA alone, vehicle: higher = more viable cells; synergy score with BYL719: higher = stronger combined killing with the drug
- Active means: 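Essential when the robust viability z-score with siRNA only falls below -3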
- Calls: active = essential when knocked down alone; inactive = no change alone

gene symbol | PubChem SID | viability z-score, siRNA alone | viability, siRNA alone, vehicle (fraction of control) | synergy score with BYL719 | call
BCOR | SID135620845 | 1.1 | 0.992 | 0.11 | inactive
BTK | SID56478487 | -0.658 | 0.842 | -0.0917 | inactive
RIOK1 | SID56479042 | -0.902 | 0.821 | -0.13 | inactive
PRKX | SID152149946 | 0.731 | 0.961 | -0.154 | inactive
EIF2AK3 | SID152151333 | 0.434 | 0.935 | -0.0577 | inactive
PRKCSH | SID56479239 | 1.12 | 0.994 | 0.0294 | inactive
MECOM | SID135621208 | 0.296 | 0.923 | -0.0819 | inactive
SRMS | SID56479047 | -0.149 | 0.885 | -0.0266 | inactive
STK4 | SID56478776 | 1.11 | 0.993 | 0.103 | inactive
CDK2 | SID56478596 | -0.16 | 0.884 | -0.14 | inactive
DGKQ | SID56478983 | -3.06 | 0.636 | -0.152 | active
PIM2 | SID56479034 | 0.947 | 0.979 | -0.022 | inactive
CKMT2 | SID152154085 | -0.522 | 0.853 | 0.00754 | inactive
EPHB4 | SID152156322 | 0.439 | 0.936 | -0.0796 | inactive
GUK1 | SID152156775 | -2.09 | 0.719 | -0.107 | inactive
PIK3C2G | SID152155956 | -0.373 | 0.866 | -0.0358 | inactive
PRKAR2B | SID56479179 | 0.815 | 0.968 | 0.12 | inactive
CPNE3 | SID134315878 | 1.19 | 1 | -0.0936 | inactive
PTPN11 | SID134310183 | 0.402 | 0.932 | -0.0748 | inactive
MAP2K5 | SID135620764 | 1.05 | 0.988 | 0.0481 | inactive
